Values of other authors in US5470737A, “Stably-transformed cells expressing human thiopurine methyltransferase” (priority 1994, dated 1995).
For at least one compound, name, drawing or mass did not settle the structure.

Tested on: human liver TPMT
Settings: read-out: Apparent Km value for Ado-Met; cited from earlier work

Question: Which Km does the source give for `C[S+](CC[C@H](N)C(=O)O)C[C@H]1O[C@@H](n2cnc3c(N)ncnc32)[C@H](O)[C@@H]1O` (stereo partly drawn) [Ado-Met, S-adenosyl-L-methionine] here?
Answer: 2.7 µM
